Data from paper doi:10.1101/2020.11.26.384925.
These are yes or no findings as the source states them, for the method shown. In cells and extracts the contact can be indirect. Some binding calls cover weakened binding; strength is not graded here. Tags and fused reporters may be left off the sequences shown. One block for each binder: values may come before it.

Tests used:
[1] = target: T1, GFP-Vangl2 (Van Gogh-Like protein 2) (mouse) (UniProt Q91ZD4); assay: co-IP
T1 sequence: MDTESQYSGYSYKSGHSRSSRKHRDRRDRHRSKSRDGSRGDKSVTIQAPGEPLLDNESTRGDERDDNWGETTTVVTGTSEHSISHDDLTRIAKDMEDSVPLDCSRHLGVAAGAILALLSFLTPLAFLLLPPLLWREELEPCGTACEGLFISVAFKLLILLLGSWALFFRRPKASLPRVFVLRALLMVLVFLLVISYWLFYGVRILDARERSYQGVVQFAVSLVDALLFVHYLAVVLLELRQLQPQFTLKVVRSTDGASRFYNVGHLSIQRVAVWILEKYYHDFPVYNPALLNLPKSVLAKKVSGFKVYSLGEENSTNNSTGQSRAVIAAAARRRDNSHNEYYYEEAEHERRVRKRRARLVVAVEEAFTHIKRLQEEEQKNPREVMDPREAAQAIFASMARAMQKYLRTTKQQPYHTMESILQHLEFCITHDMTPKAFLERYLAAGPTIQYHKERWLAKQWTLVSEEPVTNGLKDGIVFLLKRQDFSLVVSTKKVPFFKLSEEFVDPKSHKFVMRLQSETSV

[2] = target: T1, GFP-Vangl2 (Van Gogh-Like protein 2) (mouse); assay: proximity ligation
[3] = target: T2, MuSK-HA (muscle specific kinase) (rat) (UniProt Q62838); assay: co-IP
T2 sequence: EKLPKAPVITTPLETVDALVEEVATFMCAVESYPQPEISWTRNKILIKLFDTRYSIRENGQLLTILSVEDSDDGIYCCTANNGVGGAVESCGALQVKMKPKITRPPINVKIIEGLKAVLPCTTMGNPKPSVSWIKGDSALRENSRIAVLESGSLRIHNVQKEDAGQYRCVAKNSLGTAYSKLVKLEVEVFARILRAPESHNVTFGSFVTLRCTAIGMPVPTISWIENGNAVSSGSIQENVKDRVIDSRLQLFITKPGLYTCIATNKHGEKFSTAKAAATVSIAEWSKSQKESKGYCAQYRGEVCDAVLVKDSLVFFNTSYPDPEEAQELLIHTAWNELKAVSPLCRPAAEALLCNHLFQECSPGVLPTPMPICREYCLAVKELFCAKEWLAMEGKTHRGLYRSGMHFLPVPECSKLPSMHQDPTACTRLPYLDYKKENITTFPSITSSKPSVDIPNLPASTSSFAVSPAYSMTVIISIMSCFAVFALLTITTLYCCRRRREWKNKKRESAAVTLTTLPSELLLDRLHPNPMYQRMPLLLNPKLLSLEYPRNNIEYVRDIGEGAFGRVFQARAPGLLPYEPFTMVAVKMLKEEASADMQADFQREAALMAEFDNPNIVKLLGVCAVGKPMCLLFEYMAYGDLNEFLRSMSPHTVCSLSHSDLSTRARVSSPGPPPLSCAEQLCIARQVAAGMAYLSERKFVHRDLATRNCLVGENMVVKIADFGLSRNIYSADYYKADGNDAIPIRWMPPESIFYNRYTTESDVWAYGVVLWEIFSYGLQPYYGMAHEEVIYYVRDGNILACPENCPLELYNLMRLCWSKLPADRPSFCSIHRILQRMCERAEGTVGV

binding [1]: binds
binding [2]: binds
B1: MuSK-HA (muscle specific kinase) (receptor, UniProt Q62838 22-868)
chain: T2 sequence

binding [3]: binds
B2: GFP-Vangl2 (Van Gogh-Like protein 2) (protein, UniProt Q91ZD4 1-521)
chain: T1 sequence
